Measured values reported in PubChem BioAssay AID1347423 (Functional Genomics Laboratory (NCATS/FGL), 2020).
About 210 (0.4%) of roughly 52,000 sequences were called active.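 Rule for the calls: active = gene whose silencing raises cell survival under the drug, median off-target-corrected z-score across its silencing RNAs 2 or more; inactive = the rest.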 The list shows a part of the results.

Assay: Resistance to Poly (ADP-Ribose) Polymerase inhibitor: Gene Identification via Genome-wide siRNA Screen
Conditions: mouse BRCA2 R2336H ES cells, olaparib, CellTiter-Glo viability; stronger effect = higher value
Outline: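 Genome-wide siRNA screen (3 siRNAs/gene, 20 nM) in mouse ES cells carrying hypomorphic BRCA2 R2336H; olaparib 500 nM added 48 h post-transfection, CellTiter-Glo viability 72 h later. Normalized to plate-median negative control; MAD z-scores, gene median, seed-adjusted.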
For GGACUACAGAACAAAAUGUTT against Zfp533, the z-score was inactive: -1.4.
With CGUCUUCCCUGUUUACUUATT against Susd2 the z-score was inactive: 0.339.
For CCACCAAAGCAGCAGCCAATT against Polr2k, the z-score was inactive: -3.28.
In the case of GGAAAUCACAGAAGGAGAUTT against Fxr2h, the z-score is reported as inactive: -0.645.
With GGAGUGAAGAGAAAUGAGATT against Wbscr5 the z-score was inactive: 0.139.
With GGCGCAAUGUCAAUGUGAATT against Gzmb the z-score was inactive: -0.22.
In the case of GGGUCGAAGGUCAGAACAATT against Ptprh, the z-score is reported as inactive: -1.33.
With GGUUUUCUCAGACUACUCGTT against BC059845 the z-score was inactive: 0.894.
With GCCUACAUUCAACAAACGCTT against Gcnt2 the z-score was inactive: -0.526.
With GGGCAUCAUAGACUGCGUGTT against Slc25a5 the z-score was inactive: 0.774.
For GCCGUUCAUUUCAACCGUGTT against Wdr5, the z-score was inactive: -2.74.
For “GGCAGUUGUGAACUUUCUCTT against 1200003M09Rik”, the z-score was inactive: 0.0307.
In the case of GGACAGUAAUAUGAUGAGCTT against Lzts1, the z-score is reported as inactive: 0.651.
With “GGUAAAACAGGUAUGUCGCTT against 2610204K14Rik” the z-score was inactive: 0.867.
With “GGAAGUCUCUCGUAUUAUATT against E430025E21Rik” the z-score was inactive: 1.28.
In the case of GGUUCAGAAGGAAGUUUUGTT against Jmy, the z-score is reported as inactive: -0.431.
With GCUAUUACGGUAAUCGAGCTT against Dnajc7 the z-score was inactive: -2.11.
In the case of GUGGCGAUAUCCAGAGAUGTT against V1rc26, the z-score is reported as inactive: -0.61.
In the case of GGACAUCCGAGCCAUUCUATT against Spata2, the z-score is reported as inactive: -1.02.
In the case of GGAUCGACAGCAUCAUUCUTT against AY487415, the z-score is reported as inactive: 1.74.
For CCCGAGAAACCUGGAGUCUTT against Prss19, the z-score was inactive: -0.0359.
In the case of GGAAUAUGCAUAUUCAUGATT against Olfr350, the z-score is reported as inactive: 0.983.
In the case of GGCAUCUGGUAACUUUUACTT against Trim59, the z-score is reported as inactive: 1.34.
For GGAGCAAGCUCAGCUUACCTT against Ube3a, the z-score was inactive: 0.491.
With CCAACCUUGCCCAUUUCCATT against Lsp1 the z-score was inactive: 1.37.
In the case of GGAUGAGUUGUCAUUGAUATT against Nck1, the z-score is reported as inactive: 0.591.
For “CGGAAGGAGAGAAUGACAGTT against 1110008P14Rik”, the z-score was inactive: -1.34.
With GCUGUACCUAGAACACAACTT against Fmod the z-score was inactive: 0.692.
In the case of GCGAGAGAUCCCUCUGAAATT against Pigs, the z-score is reported as inactive: 0.752.
With GGCAUGCUGGAAUCAAACATT against Dppa2 the z-score was inactive: 1.26.
In the case of “GGAAUGGGCAGUAUGAGUUTT against 9530014D17Rik”, the z-score is reported as inactive: -0.135.
In the case of “GGUUCGUAAAGUAAAUGAGTT against 9930036E21Rik”, the z-score is reported as inactive: -0.0495.
With “GGUGAUCAACAAUGGCAAUTT against 3110037K17Rik” the z-score was inactive: -0.708.
For GGGCACCUGACAAAAUUGCTT against Dom3z, the z-score was inactive: 0.867.
With GAAGCUGUCCUCAGCUCCATT against Olfr491 the z-score was inactive: -0.291.
For “UCAUAGCAGAGAUUAGAAUTT against 4933413G11Rik”, the z-score was inactive: -0.0167.
For GGUUGAAACUUUUUCUGGUTT against Rps7, the z-score was inactive: -2.8.
In the case of GGUGAAGAAAGCGGAAAAGTT against Cstf3, the z-score is reported as inactive: 1.2.
With CCUAUCAAACUGACUUCAUTT against Gats the z-score was inactive: -0.957.
In the case of GGCUCACUCAUUUGUCAGATT against Soat1, the z-score is reported as inactive: 0.456.
With GCCAUUAGCCUGCUACCUGTT against BC021608 the z-score was inactive: 0.947.
In the case of “GGAGACCAAAUGCUAGACGTT against 2510049I19Rik”, the z-score is reported as inactive: -0.244.
With “GGCCAUUAUCAUCAAAGUATT against 5730421E18Rik” the z-score was inactive: 0.145.
For GGAAAUGCCACAGCUGUACTT against Foxn4, the z-score was inactive: -2.72.
With “GGACCCUGCUUUUUAAAAATT against D230010M03Rik” the z-score was inactive: 0.282.
With GGAUAGAUUUUAGGUAUUGTT against Htr5b the z-score was inactive: -0.468.
In the case of GGACUUCCACCGAAAGUUUTT against Rasd1, the z-score is reported as inactive: -0.0999.
In the case of GGAGACCAGUACCCUCUGATT against Cmklr1, the z-score is reported as inactive: -2.16.
For CGGUCAAGUUUUGAUUCCATT against Prkaa2, the z-score was inactive: -2.
With GGGAGACGCAAAGCCUUAUTT against Olfr1238 the z-score was inactive: -2.74.
In the case of GCCUGCAUUCCAUAACACUTT against Prom1, the z-score is reported as inactive: 1.06.
For CGGAUGAGGUUUCUUUUAUTT against Phkb, the z-score was inactive: 0.105.
In the case of GGCGGAGAAGGAGAUUUUATT against Cldn10, the z-score is reported as inactive: 1.42.
With GGAGUCUUGCUCUAUAUAATT against Arpc5 the z-score was inactive: 0.704.
For GGUGGUGUACAACAGAGUUTT against Ust, the z-score was inactive: -0.448.
With GGAACCAACCAGGAGAAAUTT against Ms4a4d the z-score was inactive: -0.289.
With GGCAAUCCUGUCCAACAAGTT against Hydin the z-score was inactive: 0.941.
With GCCAUGGUUAUUAAGCUGGTT against Olfr608 the z-score was inactive: -0.319.
With GGCUUAAUUACACAUGUUCTT against Il6 the z-score was inactive: 1.17.
For CAACCCUGUAAGGUUGAUUTT against Oog3, the z-score was inactive: 0.371.
In the case of GCGUUUCACGUACCUUCCUTT against Nfatc1, the z-score is reported as inactive: 0.178.
For GCACUAGCAAUUUUUCUUUTT against Tram1, the z-score was inactive: 0.263.
For GGACUUCAAAACAGAUCUGTT against H3f3a, the z-score was inactive: -1.18.
In the case of GGCGAACAAUUCCCUCAUUTT against Nos1, the z-score is reported as inactive: 1.27.
In the case of “GGCAAAUUUAUUUCAGGAATT against 1300019C06Rik”, the z-score is reported as inactive: 1.42.
In the case of GCGUAUAGUUUCGAGAAAUTT against BC004636, the z-score is reported as inactive: -0.677.
With “GGAGGUGAACAGAUCUCACTT against D3Ertd330e” the z-score was inactive: -0.602.
